# From paper PMC10174690
# Chains of the proteins cited; added tags and fusions are not shown.
# UniProt E9QAP7: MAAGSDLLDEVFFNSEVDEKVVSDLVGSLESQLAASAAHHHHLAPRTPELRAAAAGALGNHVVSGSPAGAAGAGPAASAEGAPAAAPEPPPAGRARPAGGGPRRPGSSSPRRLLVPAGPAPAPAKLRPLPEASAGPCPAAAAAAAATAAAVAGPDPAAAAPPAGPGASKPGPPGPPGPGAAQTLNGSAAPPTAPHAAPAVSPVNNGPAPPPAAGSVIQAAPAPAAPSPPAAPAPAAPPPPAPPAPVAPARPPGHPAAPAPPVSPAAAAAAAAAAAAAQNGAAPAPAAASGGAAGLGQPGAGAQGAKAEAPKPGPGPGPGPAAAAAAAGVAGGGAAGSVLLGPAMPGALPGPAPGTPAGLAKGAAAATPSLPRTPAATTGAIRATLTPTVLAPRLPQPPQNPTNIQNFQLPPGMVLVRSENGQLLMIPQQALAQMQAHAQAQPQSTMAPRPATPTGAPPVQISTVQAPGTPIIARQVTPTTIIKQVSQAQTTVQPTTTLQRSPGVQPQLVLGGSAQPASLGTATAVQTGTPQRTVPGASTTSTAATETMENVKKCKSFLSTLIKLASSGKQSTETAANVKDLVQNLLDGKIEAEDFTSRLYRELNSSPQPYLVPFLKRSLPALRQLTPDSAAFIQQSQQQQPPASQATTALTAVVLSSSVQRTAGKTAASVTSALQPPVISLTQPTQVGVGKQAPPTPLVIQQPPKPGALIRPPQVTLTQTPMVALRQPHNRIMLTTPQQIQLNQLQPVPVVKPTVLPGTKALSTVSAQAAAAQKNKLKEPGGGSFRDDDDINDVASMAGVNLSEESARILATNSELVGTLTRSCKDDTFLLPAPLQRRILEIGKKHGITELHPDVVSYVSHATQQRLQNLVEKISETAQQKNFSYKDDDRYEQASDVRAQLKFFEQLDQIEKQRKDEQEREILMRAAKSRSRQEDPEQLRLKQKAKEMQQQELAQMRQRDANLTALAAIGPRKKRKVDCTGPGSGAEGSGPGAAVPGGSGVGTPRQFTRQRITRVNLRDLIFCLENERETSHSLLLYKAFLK
# UniProt Q6NZA9: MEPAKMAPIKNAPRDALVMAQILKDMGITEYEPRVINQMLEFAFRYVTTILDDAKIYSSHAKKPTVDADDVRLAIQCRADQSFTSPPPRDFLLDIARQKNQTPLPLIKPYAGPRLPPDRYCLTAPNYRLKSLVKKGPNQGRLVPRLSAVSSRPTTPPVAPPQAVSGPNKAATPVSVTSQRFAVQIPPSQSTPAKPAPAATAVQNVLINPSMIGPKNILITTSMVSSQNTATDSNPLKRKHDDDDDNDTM
# B1: mAID-TBP (TATA-box binding protein with the minimal auxin-inducible degron tag at the N-terminus) (protein, UniProt P29037 1-316)
# chain: MDQNNSLPPYAQGLASPQGAMTPGIPIFSPMMPYGTGLTPQPIQNTNSLSILEEQQRQQQQQQQQQQQQQAVATAAASVQQSTSQQPTQGASGQTPQLFHSQTLTTAPLPGTTPLYPSPMTPMTPITPATPASESSGIVPQLQNIVSTVNLGCKLDLKTIALRARNAEYNPKRFAAVIMRIREPRTTALIFSSGKMVCTGAKSEEQSRLAARKYARVVQKLGFPAKFLDFKIQNMVGSCDVKFPIRLEGLVLTHQQFSSYEPELFPGLIYRMIKPRIVLLIFVSGKVVLTGAKVRAEIYEAFENIYPILKGFRKTT
# B2: TAF4b (protein, UniProt G5E8Z2 1-850)
# chain: MPAGLTEPAGAAAPVVSSASGAVTMAPVAALPVRVEGTPVALGPVTKAPVSVCVESVAPQPLPAPVGTLVTKVVPVTALPKLGSPRLPAPQIVTVKTPGTTTIQLPANLQLPPGTVLIKSNSGQLMLVSPQQAVTGAKTTSNITPRPAVPANTQTVKICTVPNSSSQLMKKVTVAPVKNLTQIGTTVATTASSTSSGQPVALPSSVITVTPAKLVNTVSTLKSSSLGVLSTPSNDARLKAETSVAAQTALPPTVLENVKKCKNFLSMLIKLACSGSQSPEMGQNVKRLVEQLLDAEIEAEEFTRKLYIELKSAPQPHLVPFLKKSVVALRQLLPNSQSFIENCVKEVSGDVVISSCTMTTATSPVVTSTVSPVLVSGATAPRTLSVQQTLNPLAGPGVANTGVVTLHSVAPAAATGGTTAATVLLQTSKPLTTSVPNTVAAVSLQPENPVVSGAAVTLAIPSATFGEASATPLCLPSAKPAITSAGTKADKPAIGTPVQIVTQPSTLLPQAAGIPQTAKVKQLVVQQPSGSSVNHVTSISHSSPLSTQNCGQKTPVNAVMPTSSIIKQITLPGNKLLSLQAQRSSIQSNKIKENGPTCFRGEDDINDVTFMAEVNLDEENACILAAHSDFVGTLIQSCKEEPFLVIGALQKRILDIGKKHDITELNSDAVNLISHATQERLRGLLEKLTTIAQHRMTIYKGSENYILSTDTRSQLKFLEKLDQLEKQRKDLEEREMLLKAAKSRSNKEDPEQLRLKQKAKELQQLELAQIQYRDANLTALAAIGPRKKRPLESGNESFKDNPSTSGTSSLTATKPFRPRITRICLRDLIFCMEQEREMKYSRALYLALLK
# Target: TAF4 (mouse (endogenous in C64 mESCs)) (UniProt E9QAP7)
# Assay: affinity purification with mass spectrometry; α-TAF4 (Santa Cruz sc-136093) crosslinked to Protein G Dynabeads, overnight at 4°C, with whole cell lysates of C64 mESCs (Lysis Buffer: 200 mM NaCl, 25 mM HEPES, 1 mM MgCl2, 0.2 mM EDTA, 0.5% NP-40; pellet digested with MNase and added); six washes; glycine pH 2.5 elution; mouse IgG IP as control; cells treated with DMSO (control) or IAA (TBP depletion); n=4
row,Molecule,binding
1,TAF9b (from UniProt Q6NZA9 1-249),binds
2,B1,binds
3,B2,binds

# Results are given in words; binding and its absence hold for the method and conditions named. In cells and extracts the contact can be indirect. Here binding means that the protein was enriched with, or labelled near, the bait; the list need not be complete. Where a sequence is shown, tags or fusion partners need not be part of it.
